Reference: PMC9810639
These are yes or no findings as the source states them, for the method shown. Binding seen in cells or lysates may run through a third protein. Some results given as binding are weak or reduced against the parent protein; the word gives no strength. Where a sequence is shown, tags or fusion partners need not be part of it.

Target: T1, CIPK9 fused with cLUC (UniProt Q9MAM1)
T1 sequence: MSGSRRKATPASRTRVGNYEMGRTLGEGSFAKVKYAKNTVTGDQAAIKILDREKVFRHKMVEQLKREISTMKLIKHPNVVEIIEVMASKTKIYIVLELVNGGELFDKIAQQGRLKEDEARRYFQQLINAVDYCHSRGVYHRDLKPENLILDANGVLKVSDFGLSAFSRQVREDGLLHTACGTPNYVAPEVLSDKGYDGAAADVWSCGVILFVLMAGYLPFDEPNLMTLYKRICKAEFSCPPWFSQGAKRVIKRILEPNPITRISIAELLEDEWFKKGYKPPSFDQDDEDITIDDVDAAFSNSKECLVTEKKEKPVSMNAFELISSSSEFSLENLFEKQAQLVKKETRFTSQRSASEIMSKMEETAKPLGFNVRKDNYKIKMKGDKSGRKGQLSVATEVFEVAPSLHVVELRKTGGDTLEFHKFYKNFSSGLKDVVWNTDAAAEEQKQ
Experiment: split reporter; split-luciferase complementation (LUC) imaging in N. benthamiana leaves co-infiltrated with Agrobacterium GV3101 carrying pairs of nLUC and cLUC constructs plus p19; leaves sprayed with 1 mM D-luciferin 36-48 h after infiltration, CCD imaging

binding: binds
Substance: CBL2 fused to nLUC (from UniProt Q8LAS7 1-226)
